The campaign covered roughly 220,000 compounds. About 770 (0.35%) were called active. Inconclusive results, whose numbers are uncertain, are shown with a selection of clear calls. No stated cut-off is given here; in the data, active means binding response below about 49% or above about 150%; inconclusive means no clear call, values can overlap the other calls; inactive means in between.
Each compound was assayed against Guanine nucleotide-binding protein G(o) subunit alpha (Homo sapiens) (UniProt P09471) (assay: RGS7-Galphao binding modulators, primary screen, biochemical, multiplexed bead flow cytometry (AID 1439;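 further: fluorescent Galphao held in activated GDP-AlF4 state binding bead-coupled RGS7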)). Conditions: at 10 µM, actives lie on both sides.

Amino acid sequences for entries named in this document (tags omitted).
UniProt P09471, whole entry, looked up: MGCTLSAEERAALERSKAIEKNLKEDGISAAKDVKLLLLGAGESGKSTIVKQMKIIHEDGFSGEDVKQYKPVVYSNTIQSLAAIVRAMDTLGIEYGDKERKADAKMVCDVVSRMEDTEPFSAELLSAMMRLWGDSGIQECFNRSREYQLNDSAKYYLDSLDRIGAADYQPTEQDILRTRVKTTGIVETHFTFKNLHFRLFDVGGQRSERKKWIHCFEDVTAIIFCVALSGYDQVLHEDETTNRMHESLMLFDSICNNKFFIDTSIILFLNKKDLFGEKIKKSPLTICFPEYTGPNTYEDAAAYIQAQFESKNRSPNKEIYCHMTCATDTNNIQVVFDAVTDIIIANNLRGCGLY

Structure (SMILES) | binding response (% of control)
CCSc1nnc(NC(=O)C2CCN(S(=O)(=O)c3c(C)c(C)cc(C)c3C)CC2)s1 | inactive: 97.1%
CC1(C)CC(=O)C(=C2SCCCS2)C(=O)C1 | inactive: 95.4%
Cn1nnc2c[n+](CC(=O)c3ccc4ccccc4c3)cc(Br)c21 | inconclusive: 88.3%
O=C(COC(=O)C1=COCCO1)Nc1ccc(OC(F)F)cc1 | inactive: 106%
O=C1/C(=C/c2cccnc2)SC(=S)N1c1ccc(F)cc1 | inactive: 108%
O=C(NCCCn1ccnc1)c1ccc(S(=O)(=O)N2CCOCC2)cc1 | inconclusive: 97.6%
CCCCN(C(=O)CNC(=O)c1ccco1)C(C(=O)NC1CCCC1)c1ccc(OC)cc1 (stereo not drawn) | inactive: 104%
CCOC(=O)CCCc1ccc(/C(C)=N/NC(N)=S)cc1 | inconclusive: 100%
COc1ccc(C2CC(c3ccc4ccccc4c3)=NN2C(=O)CN2CCC(C(N)=O)CC2)cc1 (stereo not drawn) | inconclusive: 87.6%
Cc1ccc(S(=O)(=O)N2CCOCC2)cc1C(=O)N1CCN(S(=O)(=O)c2cccs2)CC1 | inconclusive: 92.4%
CN(C)S(=O)(=O)c1cccc(NC(=O)COC(=O)/C=C/c2ccc(Br)o2)c1 | inconclusive: 320%
Cc1ncc([N+](=O)[O-])n1Cc1cccc(F)c1 | inactive: 96.9%
CCCC(=O)Nc1nnc(SCC(=O)N2CCN(c3ccccc3)CC2)s1 | inconclusive: 120%
COc1ccccc1C/C(N)=N/OC(=O)COc1cccc(C)c1C | inconclusive: 89.6%
COC(=O)c1sc2ccccc2c1N | inactive: 98.4%
COC(=O)C(C)SC1=N/C(=C/c2ccc(-n3cncn3)cc2)C(=O)N1 (stereo not drawn) | inconclusive: 105%
Cc1cccc(NC(=O)c2nc[nH]c2C(=O)N[C@@H](Cc2ccccc2)C(=O)OC(C)(C)C)c1 | inconclusive: 81%
CCC(=O)N(C1=C(NC)C(=O)c2ccccc2C1=O)C(C)C | inconclusive: 74.4%
NC(=O)CC[C@H](NC(=O)c1ccc(F)cc1)C(=O)OCC(=O)Nc1ccc(N2CCOCC2)cc1 | inactive: 101%
Cc1ccc(NC(=O)CN2CCCCCC2)cc1[N+](=O)[O-] | inconclusive: 107%
COc1ccc(OC)c2c1C(=O)C(Cl)=C(Cl)C2=O | inconclusive: 137%
COc1cc(OC)c(OC)cc1/C=N/N(C)c1ccccc1 | inactive: 134%

Some of the entries so far, with each value named:
CCCC(=O)Nc1nnc(SCC(=O)N2CCN(c3ccccc3)CC2)s1
  binding response (% of control): inconclusive: 120%
COc1ccccc1C/C(N)=N/OC(=O)COc1cccc(C)c1C
  binding response (% of control): inconclusive: 89.6%
Cc1ccc(NC(=O)CN2CCCCCC2)cc1[N+](=O)[O-]
  binding response (% of control): inconclusive: 107%

(next part)

Structure (SMILES) | binding response (% of control)
NC(=O)[C@@H]1CC2(CC(c3cccc(NC(=O)[C@H]4CCC(=O)N4)c3)=NO2)CN1C(=O)c1ccc(Cl)cc1 (stereo partly drawn) | inconclusive: 104%
COC(=O)C1=C(C(=O)OC)[C@@H]2N(C)c3ccccc3[C@@]23C[C@@H](CO)N(C(=O)NCCBr)C3=N1 | inconclusive: 97.3%
O=S(=O)(c1cccs1)N1CCN(c2ccnc3cc(Cl)ccc23)CC1 | inconclusive: 129%
CCOC(=O)N1CCC(N2CCCC(C(=O)c3cccc(OC(C)C)c3)C2)CC1 (stereo not drawn) | inconclusive: 93.5%
O=C(C1=C[C@H](c2ccccc2)C[C@H](OCc2ccc(CO)cc2)O1)N1CCCCCCC1 | inactive: 104%
Cc1cc(C)c(C)c(S(=O)(=O)Nc2ccccc2C(=O)O)c1C | inconclusive: 90.3%
O=C(O)CC1S/C(=N\N=C2CCCCCC2)N(c2ccccc2)C1=O (stereo not drawn) | inconclusive: 96.6%
CN1CCN(c2nc3c(c(=O)n(C)c(=O)n3C)n2CCSc2nnnn2-c2ccccc2)CC1 | inconclusive: 356%
NC(=O)c1cc(NC(=O)c2cc(Br)c(Br)s2)cc(C(N)=O)c1 | inconclusive: 99.3%
COc1ccccc1C(CC(=O)Nc1ccc(C)c(C)c1)c1ccc(OC(C)C)cc1 (stereo not drawn) | inactive: 118%
Cc1nnsc1C(=O)N/N=C/c1ccccc1Cl | inconclusive: 129%
C(=N\Nc1ccccn1)/c1c[nH]c2ccccc12 | inconclusive: 103%
Cc1cnc(NC(=O)C2(c3ccccc3)CC2)s1 | inconclusive: 115%
O=C(CSc1nnc(-c2ccncc2)o1)Nc1ccccc1Cl | active: 215% [activator]
O=C(Cc1nc2ccccc2[nH]1)c1ccc([N+](=O)[O-])cc1 | inconclusive: 167%
CCc1nn(CC(=O)Nc2ccc(Br)c(C)c2)c(=N)s1 | inactive: 101%
O=C(CNS(=O)(=O)c1c(Cl)cccc1Cl)OCC(=O)c1ccc[nH]1 | inconclusive: 88.8%
O=C(c1ccccc1)c1nccn1-c1ccc(Cl)nn1 | inconclusive: 20.8%
Cc1nnsc1C(=O)NC(=O)Nc1ccc(F)c(Cl)c1 | inconclusive: 116%
O=c1cc(C(F)(F)F)[nH]c2c(OC(F)(F)F)cccc12 | inconclusive: 102%
O=C(c1ccc2c(c1)OCO2)N1CCC2(CC1)Oc1ccc(F)cc1C(=O)C21CC(c2cccnc2)=NO1 (stereo not drawn) | inconclusive: 105%
Cn1c(=O)c2c(Nc3ccc(F)cc3)cc(=O)n(-c3ccccc3)c2n(C)c1=O | inconclusive: 79.8%

Structure (SMILES) | binding response (% of control)
COC(=O)CCC(=O)OC1(C)C(=O)C=C2C=C(C3CC3)N(CCCOC(C)C)C=C2C1=O (stereo not drawn) | inconclusive: 143%
Cc1nnc(Nc2ccccc2F)s1 | inconclusive: 112%
CCC(C)(C)NC(=O)C(c1ccc(F)cc1)N(Cc1ccccc1)C(=O)c1cnccn1 (stereo not drawn) | inconclusive: 127%
COc1ccc(-c2nn(-c3ccccc3)cc2/C=N/Nc2ccc(S(N)(=O)=O)cc2[N+](=O)[O-])cc1OC | inconclusive: 75.6%
COc1ccccc1Cn1c(C(C)C)nc2ccccc21 | inconclusive: 107%
COc1ccc(C(CCN2CCCC2)c2c(O)cc(OC)cc2OC)cc1 (stereo not drawn) | inconclusive: 113%
Cc1nn(C(C)C(=O)NCc2cccs2)c(C)c1[N+](=O)[O-] (stereo not drawn) | inconclusive: 123%
O=C(NNc1ccc(-c2csnn2)cc1)c1cc(Cl)cc(Cl)c1 | inconclusive: 127%
Cc1cc(C(=O)N2CCCC(C(=O)c3ccc4ccccc4c3)C2)n(C)n1 (stereo not drawn) | inactive: 103%
S=c1[nH]nc(-c2ccccn2)n1/N=C/c1ccc(-c2ccccc2Cl)o1 | inconclusive: 143%
O=S(=O)(c1ccc2ccccc2c1)N1CCN(C(=S)Nc2ccccc2F)CC1 | inconclusive: 95.8%
Cc1nc2ncnn2c(C)c1C/C=C/c1ccccc1 | inconclusive: 124%
CCCCCCC(=O)c1c(C)[nH]c(C(=O)OCC)c1C | inactive: 121%
COc1cc(/C=N\NC(=O)C2COc3ccccc3O2)cc(OC)c1O (stereo not drawn) | inconclusive: 56.8%
CC(C)(C)OC(=O)N1CCC[C@H]1c1nnc(SCC(=O)Nc2ccc(Br)cc2)o1 | inconclusive: 127%
COc1ccc(-n2c(N)c(C(=O)Nc3c(C)n(C)n(-c4ccccc4)c3=O)c3nc4ccccc4nc32)cc1 | inconclusive: 593%
CCN(C(=O)c1cc2c(C)nc3ccccc3c2o1)c1cc(Cl)ccc1OC | inconclusive: 82%
CC(C)=NOc1nc(N(C)C)nc(N(C)C)n1 | inactive: 108%
Cc1cc(N/N=C/c2ccccc2O)nc(N2CCOCC2)n1 | inconclusive: 90.5%
CCOC(=O)/C(C#N)=C/Nc1ccccc1NS(=O)(=O)c1ccc(C)c(C)c1 | inconclusive: 80.8%
COC(=O)c1cc(S(=O)(=O)C(C)C)c(S(C)=O)s1 (stereo not drawn) | inconclusive: 101%
COc1ccc(SCCN2CCN(CC(C)C)CCC2=O)cc1 | inconclusive: 97.9%

An excerpt from above in order of SMILES length, smallest number first:
Structure (SMILES) | binding response (% of control)
Cc1nnc(Nc2ccccc2F)s1 | inconclusive: 112%
Cc1cc(N/N=C/c2ccccc2O)nc(N2CCOCC2)n1 | inconclusive: 90.5%
S=c1[nH]nc(-c2ccccn2)n1/N=C/c1ccc(-c2ccccc2Cl)o1 | inconclusive: 143%

(list continues)

Structure (SMILES) | binding response (% of control)
COC(=O)c1cccc(NC(=O)NC(=O)c2ccccc2Cl)c1 | inconclusive: 80%
CN(C)/C=C1\SC(=S)N(c2ccc(Br)cc2)C1=O | inconclusive: 96.4%
N#C/C(=C(/O)CCl)c1nnc2n1CCCCC2 | inconclusive: 106%
CC(C)(C)OC(=O)NCCCC[C@H](NC(=O)c1[nH]cnc1C(=O)N[C@@H](Cc1ccccc1)C(=O)OC(C)(C)C)C(=O)OC(C)(C)C | inconclusive: 63%
S=C1SCN(Cc2cccnc2)CN1Cc1cccnc1 | inconclusive: 100%
Cc1cc(Nc2ncc(Cl)cc2Cl)n(-c2ccccn2)n1 | inactive: 100%
O=C1NC(c2ccc(Cl)cc2)=COc2ccccc21 | inconclusive: 103%
CCC1=C(OC(=O)N(CC)CC)N2C(=O)OC(=NCC3CC3)[C@]2(Cc2ccccc2)[C@H]2C1=CC[C@H]1C(=O)NC(=O)[C@H]12 | inconclusive: 109%
c1ccc2c(c1)Nc1ccncc1S2 | inconclusive: 75%
CCOC(=O)c1cccc(NC(=O)CCc2ccccc2)c1 | inconclusive: 98.3%
CC1=CC(C)(C)NC(=S)N1NC(=O)c1ccccc1Cl | inconclusive: 109%
O=C(NCc1ccc2c(c1)CCO2)Nc1ccccc1 | inconclusive: 87.7%
CC(=O)O/N=C(\N)c1ccc(-c2csnn2)cc1 | inconclusive: 104%
CCn1c(SCc2cccc(F)c2)nc2c(c1=O)SCC2 | inconclusive: 71.3%
S=c1[nH]nc(-c2cccs2)n1/N=C/c1c(Cl)cccc1Cl | inactive: 103%
O=C(c1cccc2nc3ccccc3nc12)N1CCOCC1 | inconclusive: 107%
O=C(O)c1ccc(COc2ccccc2/C=C2\NC(=O)N(Cc3ccc(F)cc3)C2=O)cc1 | inconclusive: 90.2%
CNC(=O)c1c2c(nc3ccc(Br)cc13)CCCC2 | inconclusive: 93%
COc1cc(/C=N/NC(=S)NC2CC3CCC2C3)ccc1O (stereo not drawn) | inconclusive: 83.1%
COc1ccc(OC)c(Nc2nc(NCCCN(C)C)nc(N)c2[N+](=O)[O-])c1 | inconclusive: 152%
CC(=O)OCC1=C(C(=O)O)N2C(=O)C(NC(=O)c3ccc(COc4cccc(Cl)c4Cl)o3)C2SC1 (stereo not drawn) | inactive: 97.4%
O=C(COC(=O)C1CC2C=CC1C2)Nc1ccccc1F (stereo not drawn) | inactive: 105%

Reference: PubChem BioAssay AID1439 (NMMLSC, 2008)
